Tests used:
[1] = Limit of detection/quantification, luciferase bioluminescence, peroxynitrite
[2] = Limit of detection/quantification, luciferase bioluminescence, H2O2

## O=C(O)[C@H]1CSC(c2nc3ccc(OCc4ccc(B(O)O)cc4)cc3s2)=N1 [PCL-1]
[1]; peroxynitrite (SIN-1)
  L.O.D. (limit of detection): 47 nM
  L.O.Q. (limit of quantification): 157 nM
[1]; peroxynitrite (bolus)
  L.O.Q. (limit of quantification): 56 nM
[1]; peroxynitrite (bolus), bioluminescent output, 37° C., 30 minutes
  L.O.D. (limit of detection): 16 nM
[2]
  L.O.Q. (limit of quantification): 763 nM
[2]; bioluminescent output, 37° C., 30 minutes
  L.O.D. (limit of detection): 231 nM

Source: US9643985B2, “PCL compounds, compositions, and methods of use thereof” (The Board Of Trustees Of The University Of Illinois, priority 2013, dated 2017)
